Laboratory results taken from the supplement of paper PMC10849652.
The list shows a part of the results.

The chains behind the UniProt entries cited, without tags or fusion partners. Where a name states a change or a piece, a line headed by the entry shows the natural chain unless it says otherwise.
UniProt P13598: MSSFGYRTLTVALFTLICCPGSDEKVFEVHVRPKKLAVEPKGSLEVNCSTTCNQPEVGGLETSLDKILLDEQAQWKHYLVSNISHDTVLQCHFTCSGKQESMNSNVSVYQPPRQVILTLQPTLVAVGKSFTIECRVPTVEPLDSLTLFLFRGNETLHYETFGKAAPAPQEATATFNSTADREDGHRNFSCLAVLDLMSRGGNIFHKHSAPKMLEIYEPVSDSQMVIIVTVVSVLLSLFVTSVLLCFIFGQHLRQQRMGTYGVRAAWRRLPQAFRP
UniProt P61604, whole entry, looked up: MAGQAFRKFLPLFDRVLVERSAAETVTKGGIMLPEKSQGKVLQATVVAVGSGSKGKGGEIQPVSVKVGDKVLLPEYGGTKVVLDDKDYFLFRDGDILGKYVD
UniProt P23327: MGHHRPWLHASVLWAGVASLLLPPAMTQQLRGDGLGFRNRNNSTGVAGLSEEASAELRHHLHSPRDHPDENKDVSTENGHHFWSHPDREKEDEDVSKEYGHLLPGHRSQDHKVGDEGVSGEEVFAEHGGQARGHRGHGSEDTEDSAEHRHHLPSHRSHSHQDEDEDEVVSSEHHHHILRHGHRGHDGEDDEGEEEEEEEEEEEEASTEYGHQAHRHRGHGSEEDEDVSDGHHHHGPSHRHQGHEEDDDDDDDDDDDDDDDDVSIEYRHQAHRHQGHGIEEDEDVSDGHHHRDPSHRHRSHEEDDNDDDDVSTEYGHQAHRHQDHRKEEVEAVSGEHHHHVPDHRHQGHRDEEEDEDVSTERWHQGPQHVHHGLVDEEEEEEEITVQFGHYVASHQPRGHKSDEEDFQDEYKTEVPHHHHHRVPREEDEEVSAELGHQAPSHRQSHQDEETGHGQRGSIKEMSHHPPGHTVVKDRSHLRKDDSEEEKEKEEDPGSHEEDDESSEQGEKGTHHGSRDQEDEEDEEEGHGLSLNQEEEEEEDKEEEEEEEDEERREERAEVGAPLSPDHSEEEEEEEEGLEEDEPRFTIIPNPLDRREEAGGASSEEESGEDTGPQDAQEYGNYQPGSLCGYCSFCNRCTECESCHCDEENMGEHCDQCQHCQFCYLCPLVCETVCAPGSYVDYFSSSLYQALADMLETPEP
UniProt P11021: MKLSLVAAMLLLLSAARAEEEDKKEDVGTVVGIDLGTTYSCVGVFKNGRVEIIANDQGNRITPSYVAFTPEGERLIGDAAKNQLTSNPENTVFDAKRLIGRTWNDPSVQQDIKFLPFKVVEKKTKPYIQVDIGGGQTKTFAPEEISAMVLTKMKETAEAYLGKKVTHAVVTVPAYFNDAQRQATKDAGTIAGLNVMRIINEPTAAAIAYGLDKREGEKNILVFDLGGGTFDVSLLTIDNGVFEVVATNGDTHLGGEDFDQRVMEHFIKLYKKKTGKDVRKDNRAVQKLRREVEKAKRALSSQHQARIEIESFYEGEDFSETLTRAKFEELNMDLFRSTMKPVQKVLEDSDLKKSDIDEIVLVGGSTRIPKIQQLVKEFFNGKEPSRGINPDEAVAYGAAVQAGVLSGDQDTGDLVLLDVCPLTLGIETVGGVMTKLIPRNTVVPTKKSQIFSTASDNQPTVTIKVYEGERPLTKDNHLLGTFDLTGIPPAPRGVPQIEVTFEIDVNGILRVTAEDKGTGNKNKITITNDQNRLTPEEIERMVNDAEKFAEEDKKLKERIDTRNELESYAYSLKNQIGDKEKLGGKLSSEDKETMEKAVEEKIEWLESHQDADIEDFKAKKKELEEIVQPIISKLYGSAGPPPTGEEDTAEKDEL
UniProt P52272: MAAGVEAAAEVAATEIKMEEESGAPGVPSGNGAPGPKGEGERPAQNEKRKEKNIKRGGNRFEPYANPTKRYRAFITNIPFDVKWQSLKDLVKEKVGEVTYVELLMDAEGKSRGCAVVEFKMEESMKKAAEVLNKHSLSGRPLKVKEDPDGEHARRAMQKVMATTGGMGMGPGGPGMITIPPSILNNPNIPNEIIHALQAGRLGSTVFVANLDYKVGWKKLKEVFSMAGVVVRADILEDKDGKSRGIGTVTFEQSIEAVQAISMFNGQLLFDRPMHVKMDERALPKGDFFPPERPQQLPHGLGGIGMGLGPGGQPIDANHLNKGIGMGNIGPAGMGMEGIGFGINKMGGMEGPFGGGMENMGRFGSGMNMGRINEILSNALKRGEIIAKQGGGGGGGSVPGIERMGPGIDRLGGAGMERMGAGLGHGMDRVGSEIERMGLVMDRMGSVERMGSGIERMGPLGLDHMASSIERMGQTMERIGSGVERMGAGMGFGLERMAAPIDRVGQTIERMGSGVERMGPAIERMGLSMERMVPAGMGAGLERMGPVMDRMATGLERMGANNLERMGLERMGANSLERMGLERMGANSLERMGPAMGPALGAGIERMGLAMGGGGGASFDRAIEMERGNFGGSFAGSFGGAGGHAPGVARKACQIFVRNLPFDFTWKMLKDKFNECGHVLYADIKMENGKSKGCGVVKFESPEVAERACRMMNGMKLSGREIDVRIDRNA
UniProt Q58FF7, whole entry, looked up: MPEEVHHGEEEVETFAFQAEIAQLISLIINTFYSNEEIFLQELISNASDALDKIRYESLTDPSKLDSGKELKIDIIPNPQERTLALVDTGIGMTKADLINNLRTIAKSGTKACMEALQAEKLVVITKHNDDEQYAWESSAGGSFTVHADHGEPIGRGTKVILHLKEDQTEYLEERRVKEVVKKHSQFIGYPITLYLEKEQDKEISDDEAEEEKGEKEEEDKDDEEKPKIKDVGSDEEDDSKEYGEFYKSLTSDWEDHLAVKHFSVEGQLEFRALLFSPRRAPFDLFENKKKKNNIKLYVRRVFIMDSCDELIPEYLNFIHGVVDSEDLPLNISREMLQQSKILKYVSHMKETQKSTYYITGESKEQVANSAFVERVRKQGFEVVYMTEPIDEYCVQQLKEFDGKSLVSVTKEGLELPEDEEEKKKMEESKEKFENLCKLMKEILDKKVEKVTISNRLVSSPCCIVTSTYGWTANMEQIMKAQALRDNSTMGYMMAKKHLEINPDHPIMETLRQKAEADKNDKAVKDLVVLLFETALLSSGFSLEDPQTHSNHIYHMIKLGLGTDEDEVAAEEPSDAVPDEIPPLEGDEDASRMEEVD
UniProt P55795: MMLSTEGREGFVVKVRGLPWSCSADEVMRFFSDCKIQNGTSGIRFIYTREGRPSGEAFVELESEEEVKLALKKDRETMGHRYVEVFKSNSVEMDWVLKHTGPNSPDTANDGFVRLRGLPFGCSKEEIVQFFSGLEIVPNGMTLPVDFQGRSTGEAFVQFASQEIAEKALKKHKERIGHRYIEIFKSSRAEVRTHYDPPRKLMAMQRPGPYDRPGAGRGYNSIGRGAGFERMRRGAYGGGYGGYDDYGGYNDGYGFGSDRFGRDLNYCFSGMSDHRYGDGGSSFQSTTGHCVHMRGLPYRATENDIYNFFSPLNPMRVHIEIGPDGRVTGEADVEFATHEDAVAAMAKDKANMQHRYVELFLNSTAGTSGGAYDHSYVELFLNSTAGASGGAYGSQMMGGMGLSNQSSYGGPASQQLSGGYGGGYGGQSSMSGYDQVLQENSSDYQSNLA
UniProt Q92506: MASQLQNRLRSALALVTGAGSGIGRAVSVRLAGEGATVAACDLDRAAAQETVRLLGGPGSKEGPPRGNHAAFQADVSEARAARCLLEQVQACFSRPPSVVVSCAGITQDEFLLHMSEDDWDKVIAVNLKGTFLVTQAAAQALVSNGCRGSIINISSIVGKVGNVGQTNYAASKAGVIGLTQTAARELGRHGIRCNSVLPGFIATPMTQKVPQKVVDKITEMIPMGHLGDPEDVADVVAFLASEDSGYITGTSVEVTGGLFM
UniProt Q8IWL3: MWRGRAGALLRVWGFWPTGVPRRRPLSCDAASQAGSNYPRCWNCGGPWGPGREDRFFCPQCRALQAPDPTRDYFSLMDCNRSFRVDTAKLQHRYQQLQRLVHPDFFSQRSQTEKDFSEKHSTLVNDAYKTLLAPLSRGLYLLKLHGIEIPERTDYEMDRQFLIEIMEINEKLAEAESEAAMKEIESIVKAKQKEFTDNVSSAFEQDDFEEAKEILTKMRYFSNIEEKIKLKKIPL
UniProt Q92902: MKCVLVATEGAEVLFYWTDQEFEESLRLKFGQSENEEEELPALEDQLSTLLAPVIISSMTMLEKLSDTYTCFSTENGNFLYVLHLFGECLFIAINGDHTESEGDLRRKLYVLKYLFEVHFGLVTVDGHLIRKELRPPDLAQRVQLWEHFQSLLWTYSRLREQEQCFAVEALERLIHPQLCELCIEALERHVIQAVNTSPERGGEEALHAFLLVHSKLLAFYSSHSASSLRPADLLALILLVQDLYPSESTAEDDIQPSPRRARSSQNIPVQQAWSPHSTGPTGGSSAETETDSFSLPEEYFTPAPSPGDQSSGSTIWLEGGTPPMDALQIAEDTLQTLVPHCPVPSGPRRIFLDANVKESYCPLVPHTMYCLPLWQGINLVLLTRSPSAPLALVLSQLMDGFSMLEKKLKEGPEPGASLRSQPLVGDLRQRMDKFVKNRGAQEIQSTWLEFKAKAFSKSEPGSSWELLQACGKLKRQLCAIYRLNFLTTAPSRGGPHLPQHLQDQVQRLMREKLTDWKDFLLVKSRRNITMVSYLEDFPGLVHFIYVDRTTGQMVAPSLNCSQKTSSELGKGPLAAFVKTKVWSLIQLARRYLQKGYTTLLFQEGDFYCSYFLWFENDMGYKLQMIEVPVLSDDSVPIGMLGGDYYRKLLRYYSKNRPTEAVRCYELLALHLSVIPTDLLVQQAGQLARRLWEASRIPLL
UniProt O60725, whole entry, looked up: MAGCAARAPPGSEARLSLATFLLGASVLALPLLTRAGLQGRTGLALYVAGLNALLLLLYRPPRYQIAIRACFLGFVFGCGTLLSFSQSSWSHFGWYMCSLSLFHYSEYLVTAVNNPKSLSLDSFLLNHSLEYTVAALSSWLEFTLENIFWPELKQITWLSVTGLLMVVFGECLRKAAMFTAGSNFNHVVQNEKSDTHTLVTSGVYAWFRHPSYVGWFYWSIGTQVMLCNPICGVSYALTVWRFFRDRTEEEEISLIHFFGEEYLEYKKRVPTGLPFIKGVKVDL
UniProt P10809, whole entry, looked up: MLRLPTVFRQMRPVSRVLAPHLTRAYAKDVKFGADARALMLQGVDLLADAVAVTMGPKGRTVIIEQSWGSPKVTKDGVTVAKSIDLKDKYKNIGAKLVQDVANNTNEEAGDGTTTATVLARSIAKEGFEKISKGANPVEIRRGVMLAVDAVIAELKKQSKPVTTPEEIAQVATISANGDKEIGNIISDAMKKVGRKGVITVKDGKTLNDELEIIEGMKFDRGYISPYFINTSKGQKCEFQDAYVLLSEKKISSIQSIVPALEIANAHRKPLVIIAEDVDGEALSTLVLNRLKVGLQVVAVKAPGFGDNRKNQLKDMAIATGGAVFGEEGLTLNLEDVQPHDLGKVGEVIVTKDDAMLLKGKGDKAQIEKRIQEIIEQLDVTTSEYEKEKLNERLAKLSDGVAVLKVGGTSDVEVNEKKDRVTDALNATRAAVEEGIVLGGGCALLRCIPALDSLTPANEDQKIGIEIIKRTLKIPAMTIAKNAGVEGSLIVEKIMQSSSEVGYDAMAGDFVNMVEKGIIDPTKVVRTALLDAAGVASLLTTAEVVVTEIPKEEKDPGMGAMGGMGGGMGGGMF
UniProt P30519: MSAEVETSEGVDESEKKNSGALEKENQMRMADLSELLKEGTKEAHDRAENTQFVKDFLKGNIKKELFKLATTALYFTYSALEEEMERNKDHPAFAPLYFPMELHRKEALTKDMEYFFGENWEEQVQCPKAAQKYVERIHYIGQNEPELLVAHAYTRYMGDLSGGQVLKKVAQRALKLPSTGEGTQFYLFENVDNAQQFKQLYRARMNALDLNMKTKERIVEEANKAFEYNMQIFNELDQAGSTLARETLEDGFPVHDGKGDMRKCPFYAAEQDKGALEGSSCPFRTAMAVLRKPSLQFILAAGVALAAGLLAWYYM
UniProt Q14103: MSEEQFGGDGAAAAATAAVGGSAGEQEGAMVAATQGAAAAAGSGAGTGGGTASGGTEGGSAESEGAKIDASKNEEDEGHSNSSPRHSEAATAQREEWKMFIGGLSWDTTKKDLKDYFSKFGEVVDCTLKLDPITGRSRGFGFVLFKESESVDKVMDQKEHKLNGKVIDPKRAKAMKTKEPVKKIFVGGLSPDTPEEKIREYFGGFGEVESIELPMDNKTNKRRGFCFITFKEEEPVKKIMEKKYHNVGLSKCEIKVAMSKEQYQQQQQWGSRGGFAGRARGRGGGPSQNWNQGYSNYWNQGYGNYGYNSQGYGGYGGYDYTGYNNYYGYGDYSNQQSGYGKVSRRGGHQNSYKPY
UniProt Q99729: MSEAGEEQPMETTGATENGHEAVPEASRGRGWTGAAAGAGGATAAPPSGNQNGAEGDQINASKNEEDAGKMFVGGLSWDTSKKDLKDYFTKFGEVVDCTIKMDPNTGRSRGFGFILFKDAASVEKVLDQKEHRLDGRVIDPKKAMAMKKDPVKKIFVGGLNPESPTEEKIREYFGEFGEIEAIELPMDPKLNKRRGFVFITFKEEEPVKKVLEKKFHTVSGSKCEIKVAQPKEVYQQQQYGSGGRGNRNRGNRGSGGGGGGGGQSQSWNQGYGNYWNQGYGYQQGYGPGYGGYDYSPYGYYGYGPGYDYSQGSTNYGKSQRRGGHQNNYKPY

What was measured:
Assay in all cases: log2 fold change, soluble protein after heating vs DMSO (PISA); higher = thermal stabilisation; K562 cells, 10 uM, 30 min; active = over 0.2 and 3.5 SD of the protein, either way, in both replicates (recomputed)
[1] = compound: NC(=O)Nc1cc(-c2cccc(F)c2)sc1C(=O)N[C@H]1CCCNC1
In short: (§1)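 Aliquots of K562 cells (2×10^6 cells/mL) treated with 10 μM compound for 30 min were heated for 3 min over 48°C-58°C. After pooling and extraction in PBS with 0.5% NP-40 at 4°C, soluble protein from a 21,000xg, 90 min spin was quantified by TMTpro 16plex LC-MS/MS with channel sums equalised. Thermal stability is expressed against control samples, from duplicates, as a log2 fold change.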

[2] = compound: NC(=O)c1cnc(N[C@@H]2CCCC[C@@H]2N)nc1Nc1cccc(-n2nccn2)c1
In short: as §1

[3] = compound: NC1(c2ccc(-c3nc4ccn5c(=O)[nH]nc5c4cc3-c3ccccc3)cc2)CCC1
In short: as §1

[4] = compound: NCC(=O)Nc1ccc(-n2nc(C(F)(F)F)cc2-c2ccc3c(ccc4ccccc43)c2)cc1
In short: as §1

entinostat = compound: Nc1ccccc1NC(=O)c1ccc(CNC(=O)OCc2cccnc2)cc1 [entinostat]
In short: as §1

vorinostat = compound: O=C(CCCCCCC(=O)Nc1ccccc1)NO [vorinostat]
In short: as §1

citarinostat = compound: O=C(CCCCCCNC(=O)c1cnc(N(c2ccccc2)c2ccccc2Cl)nc1)NO [citarinostat]
In short: as §1

silmitasertib = compound: O=C(O)c1ccc2c(c1)nc(Nc1cccc(Cl)c1)c1ccncc12 [silmitasertib]
In short: as §1

[5] = compound: O=C1NC(=O)C(c2cnc3ccccn23)=C1c1cn2c3c(cc(F)cc13)CN(C(=O)N1CCCCC1)CC2
In short: as §1

[6] = compound: c1cc(OCCN2CCCCC2)cc(-c2n[nH]c3ccc(-c4nnc[nH]4)cc23)c1
In short: as §1

Measured: log2 fold change

ICAM2 (UniProt P13598)
inactive: [1] -0.079 | [2] 0.056 | [3] 0.107 | [4] 0.087 | entinostat -0.049 | vorinostat -0.012 | citarinostat 0.054 | silmitasertib -0.054 | [5] -0.066 | [6] -0.032

HSPE1 (UniProt P61604)
inactive: [1] -0.016 | [2] -0.083 | [3] 0.061 | [4] -0.025 | entinostat 0.03 | vorinostat -0.066 | citarinostat 0.011 | silmitasertib -0.027 | [5] -0.09 | [6] 0

HRC (UniProt P23327)
inactive: [1] -0.161 | [2] 0.005 | [3] -0.02 | [4] -0.056 | entinostat -0.114 | vorinostat -0.128 | citarinostat -0.011 | silmitasertib 0.013 | [5] 0.023 | [6] -0.026

HSPA5 (UniProt P11021)
inactive: [1] 0.008 | [2] -0.003 | [3] -0.001 | [4] 0.014 | entinostat -0.009 | vorinostat -0.028 | citarinostat -0.044 | silmitasertib -0.025 | [5] -0.007 | [6] -0.018

HMCN1 (UniProt Q96RW7)
inactive: [1] -0.038 | [2] 0.083 | [3] 0.216 | [4] 0.036 | entinostat -0.006 | vorinostat 0.073 | citarinostat 0.013 | silmitasertib 0.076 | [5] 0.127 | [6] 0.537

HSF1 (UniProt Q00613)
inactive: [1] 0.031 | [2] -0.154 | [3] -0.169 | [4] -0.013 | entinostat 0.177 | vorinostat 0.332 | citarinostat 0.184 | silmitasertib 0.075 | [5] -0.173 | [6] -0.016

HNRNPM (UniProt P52272)
inactive: [1] 0.115 | [2] 0.107 | [3] 0.233 | [4] 0.047 | entinostat -0.011 | vorinostat 0.039 | citarinostat -0.074 | silmitasertib 0.112 | [5] 0.137 | [6] -0.234

HSP90AB3P (UniProt Q58FF7)
inactive: [1] 0.015 | [2] -0.023 | [3] -0.175 | entinostat -0.038 | vorinostat 0.104 | citarinostat 0.04 | silmitasertib -0.028 | [6] 0.071

HMCES (UniProt Q96FZ2)
inactive: [1] 0.039 | [2] -0.012 | [3] -0.049 | entinostat 0.028 | citarinostat 0.039 | silmitasertib -0.114 | [5] -0.207 | [6] -0.133

HNRNPH2 (UniProt P55795)
inactive: [1] -0.073 | [2] -0.03 | [3] -0.124 | [4] -0.077 | entinostat 0.016 | vorinostat 0.114 | citarinostat 0.06 | silmitasertib 0.031 | [5] -0.007 | [6] -0.086

HSD17B8 (UniProt Q92506)
inactive: [1] 0.023 | [2] -0.002 | [3] -0.008 | [4] 0.03 | entinostat 0.012 | vorinostat 0.003 | citarinostat 0.001 | silmitasertib -0.005 | [5] 0.044 | [6] 0.046

Pulled one by one from the list above, 2 records:
HMCES (UniProt Q96FZ2)
inactive: [1] 0.039 | [2] -0.012 | [3] -0.049 | entinostat 0.028 | citarinostat 0.039 | silmitasertib -0.114 | [5] -0.207 | [6] -0.133

HSD17B8 (UniProt Q92506)
inactive: [1] 0.023 | [2] -0.002 | [3] -0.008 | [4] 0.03 | entinostat 0.012 | vorinostat 0.003 | citarinostat 0.001 | silmitasertib -0.005 | [5] 0.044 | [6] 0.046

(continued)

HSCB (UniProt Q8IWL3)
inactive: [1] 0 | [2] -0.012 | [3] -0.035 | [4] -0.138 | entinostat -0.094 | vorinostat 0.064 | silmitasertib 0.002 | [5] -0.037

IARS (UniProt P41252)
inactive: [1] 0.155 | [2] -0.099 | [3] 0.136 | [4] 0.024 | entinostat 0.071 | vorinostat 0.035 | citarinostat -0.009 | silmitasertib 0.196 | [5] 0.38 | [6] -0.17

HPS1 (UniProt Q92902)
inactive: [1] 0.029 | [2] -0.089 | [3] -0.288 | [4] -0.174 | entinostat -0.069 | citarinostat 0.103 | silmitasertib 0.043 | [6] 0.122

ICMT (UniProt O60725)
inactive: [1] 0.031 | [2] -0.153 | [3] -0.233 | [4] -0.079 | entinostat 0.007 | citarinostat -0.034 | silmitasertib 0.022 | [5] -0.013 | [6] -0.016

HOXB9 (UniProt P17482)
inactive: [1] -0.016 | [2] -0.024 | [3] -0.092 | [4] 0.005 | entinostat 0.113 | citarinostat 0.155 | silmitasertib -0.069 | [5] -0.02 | [6] -0.162

HSPD1 (UniProt P10809)
inactive: [1] 0.012 | [2] -0.003 | [3] 0.018 | [4] 0.007 | entinostat -0.022 | vorinostat -0.023 | citarinostat -0.009 | silmitasertib -0.028 | [5] -0.038 | [6] 0.029

ICAM5 (UniProt Q9UMF0)
inactive: [1] 0.099 | [2] -0.321 | [3] -0.007 | [4] -0.028 | entinostat -0.011 | citarinostat 0.13 | silmitasertib 0.004 | [5] -0.016 | [6] 0.11

HMOX2 (UniProt P30519)
inactive: [1] -0.022 | [2] -0.028 | [3] -0.094 | [4] -0.026 | entinostat 0.018 | vorinostat 0.029 | citarinostat 0.023 | silmitasertib 0 | [5] 0.013 | [6] -0.03

HSPA2 (UniProt P54652)
inactive: [1] -0.015 | [2] 0.076 | [3] -0.071 | entinostat -0.039 | silmitasertib 0.006

HMGN2 (UniProt P05204)
inactive: [1] 0.071 | [2] 0.07 | [3] 0.139 | [4] 0.027 | entinostat -0.092 | vorinostat -0.225 | citarinostat -0.129 | silmitasertib 0.02 | [5] 0.067 | [6] 0.151

HNRNPD isoform 4 (UniProt Q14103)
inactive: [1] -0.005 | [2] 0.011 | [3] 0.205 | [4] 0.172 | entinostat -0.041 | vorinostat -0.087 | citarinostat -0.215 | silmitasertib 0.112 | [5] 0.102 | [6] -0.049

HNRNPAB isoform 3 (UniProt Q99729)
inactive: [1] -0.028 | [2] 0.034 | [3] 0.246 | [4] 0.073 | entinostat -0.059 | vorinostat -0.058 | citarinostat -0.077 | silmitasertib 0.14 | [5] 0.188 | [6] -0.095
